Source: PubChem BioAssay AID1224826 (NIAID, 2016)
The deposit covers about 17,000 reagents; this is a random part of them. About 1,110 of all reagents (6.6%) count as active. 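Active means lowered or raised reporter signal; replicate intensities are raw and not normalised per plate.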 Reagents against one gene are numbered here. Further read-outs or replicates are left out here.

Aim: 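Knock-downs that raise or lower Tnf reporter signal after endotoxin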 (primary screen)
Cell system: RAW264.7 G9 macrophages from mouse bearing reporters for p65 (GFP) and the Tnf promoter (mCherry)
Reagent: siRNA pool against mouse genes, 100 nM
Time to read-out: 16 h of LPS stimulation, after 2 days of siRNA transfection
Conditions: bacterial lipopolysaccharide (Salmonella minnesota R595), 10 ng/ml
Measurement: 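Nuclear mCherry signal of the Tnf promoter reporter measured by imaging after background removal, scaled to each plate median and turned into robust z-scores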
Reading the numbers: Tnf reporter robust z-score: higher = stronger Tnf promoter reporter signal after LPS
Call rule: 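a well counts as active at a score of -1.3 or below (Tlr4 knock-down control median) or above 3 (raised signal); controls and wells holding fewer than 50 cells are excluded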
Meaning of the calls: active = Tnf reporter clearly lowered or raised; inactive = no clear change in Tnf reporter

Depletion of Tubb3 came out at: Tnf reporter robust z-score 1.31; fewer than 50 cells in well enough cells in well; inactive.
Rilpl2 showed Tnf reporter robust z-score 1.03; fewer than 50 cells in well enough cells in well; inactive.
Against Dmrt2 the deposit lists Tnf reporter robust z-score -0.85; fewer than 50 cells in well enough cells in well; inactive.
Depletion of Aste1 gave: Tnf reporter robust z-score 0.36; fewer than 50 cells in well enough cells in well; inactive.
Stam2 gave Tnf reporter robust z-score -0.2; fewer than 50 cells in well enough cells in well; inactive.
Gm2716 showed Tnf reporter robust z-score -0.13; fewer than 50 cells in well enough cells in well; inactive.
Silencing of Pfkfb2 gave: Tnf reporter robust z-score 1.16; fewer than 50 cells in well enough cells in well; inactive.
With knock-down of Cep97, the screen gave Tnf reporter robust z-score -0.66; fewer than 50 cells in well enough cells in well; inactive.
Rpl29 gave Tnf reporter robust z-score -0.24; fewer than 50 cells in well enough cells in well; inactive.
Against Trappc2l, the entry reads Tnf reporter robust z-score 1.35; fewer than 50 cells in well enough cells in well; inactive.
After knock-down of Zfp428, the record shows fewer than 50 cells in well fewer than 50 cells per well; well left out of calls; inactive.
With knock-down of Kcns3, the screen gave Tnf reporter robust z-score 0.33; fewer than 50 cells in well enough cells in well; inactive.
For Aqp7, the values are Tnf reporter robust z-score -1.13; fewer than 50 cells in well enough cells in well; inactive.

Limited to “fewer than 50 cells in well”, for 4 of the entries above:
Pfkfb2	enough cells in well
Cep97	enough cells in well
Rpl29	enough cells in well
Trappc2l	enough cells in well

The list goes on.
With knock-down of Tmprss11f, the record shows Tnf reporter robust z-score -0.16; fewer than 50 cells in well enough cells in well; inactive.
Depletion of Neurog1 resulted in: Tnf reporter robust z-score 0.17; fewer than 50 cells in well enough cells in well; inactive.
Dnmt3l scored Tnf reporter robust z-score -1.01; fewer than 50 cells in well enough cells in well; inactive.
With knock-down of Itga6, the screen gave Tnf reporter robust z-score -0.55; fewer than 50 cells in well enough cells in well; inactive.
Against Neurl3 the deposit lists Tnf reporter robust z-score -0.76; fewer than 50 cells in well enough cells in well; inactive.
Or8g51 gave Tnf reporter robust z-score -0.69; fewer than 50 cells in well enough cells in well; inactive.
Bik scored Tnf reporter robust z-score 0.21; fewer than 50 cells in well enough cells in well; inactive.
With knock-down of Paqr7 the results were Tnf reporter robust z-score -0.9; fewer than 50 cells in well enough cells in well; inactive.
Krt8 showed Tnf reporter robust z-score -1.22; fewer than 50 cells in well enough cells in well; inactive.
Silencing of Slc25a46 came out at: Tnf reporter robust z-score 0.39; fewer than 50 cells in well enough cells in well; inactive.
Depletion of Exo5 resulted in: Tnf reporter robust z-score -0.22; fewer than 50 cells in well enough cells in well; inactive.
Wrap73 showed Tnf reporter robust z-score -0.62; fewer than 50 cells in well enough cells in well; inactive.
With knock-down of Morc2a, the screen gave Tnf reporter robust z-score 0.78; fewer than 50 cells in well enough cells in well; inactive.
With knock-down of Tor1aip2 #1, the screen gave Tnf reporter robust z-score 0.61; fewer than 50 cells in well enough cells in well; inactive.
Tor1aip2 #2 showed Tnf reporter robust z-score 0.73; fewer than 50 cells in well enough cells in well; inactive.
